In all, about 350,000 compounds went through this assay and about 1,200 (0.34%) were called active. All entries are inconclusive by the source's own rule. Clear calls are listed elsewhere. Calls follow the shape of the dose curve; as a rule, active = well fitted inhibition curve with a large enough effect; inconclusive = small, poorly fitted or top-dose-only effect; inactive = no such curve, though single readings can be large or run the other way.
Molecular target: DNA repair nuclease/redox regulator APEX1 (Homo sapiens) (UniProt P27695)
Assay: qHTS Assay for Inhibitors of the Human Apurinic/apyrimidinic Endonuclease 1 (APE1); also: nearly all actives have a fitted effect of over 55% in size
Conditions: recombinant APE1, TAMRA/BHQ-2 abasic DNA cleavage fluorescence
Potency is read from the fitted curve at half-maximal effect.

Chains of the proteins cited; added tags and fusions are not shown.
UniProt P27695, whole entry: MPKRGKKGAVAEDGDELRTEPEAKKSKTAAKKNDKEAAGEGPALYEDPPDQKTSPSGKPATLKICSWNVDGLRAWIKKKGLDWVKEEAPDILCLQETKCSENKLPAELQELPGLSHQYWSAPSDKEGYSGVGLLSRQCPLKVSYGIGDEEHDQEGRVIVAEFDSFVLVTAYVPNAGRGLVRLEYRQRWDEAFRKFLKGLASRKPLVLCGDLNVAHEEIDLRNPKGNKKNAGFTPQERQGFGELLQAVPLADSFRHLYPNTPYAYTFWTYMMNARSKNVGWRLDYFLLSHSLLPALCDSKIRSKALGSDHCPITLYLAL

| SMILES | Potency |
| --- | --- |
| C/C1=C2N=C(/C=C3N=C(/C(C)=C4\[N-][C@@](C)([C@@H]5N=C1[C@](C)(CCC(=O)NC[C@@H](C)OP(=O)([O-])O[C@H]1[C@@H](O)[C@@H](n6cnc7cc(C)c(C)cc76)O[C@@H]1CO)[C@H]5CC(N)=O)[C@@](C)(CC(N)=O)[C@@H]4CCC(N)=O)[C@@](C)(CC(N)=O)[C@@H]\3CCC(N)=O)C(C)(C)[C@@H]/2CCC(N)=O.[C-]#N.[Co+3] | inconclusive: 15.8 µM |
